Test results from PubChem BioAssay AID624170 (National Center for Advancing Translational Sciences (NCATS), 2012).
In all, about 410,000 compounds went through this assay and about 850 (0.21%) were called active. Listed are the inconclusive results; actives and inactives stand elsewhere. Calls come from the whole dose curve; as a rule, active = well fitted inhibition curve with a large enough effect; inconclusive = small, poorly fitted or top-dose-only effect, or another doubt; inactive = no such curve, though single readings can be large or run the other way.
Potency is the fitted concentration of half-maximal effect.

Protein sequences, listed by entry. Tags and fused reporters are not part of them.
UniProt O94925, whole entry: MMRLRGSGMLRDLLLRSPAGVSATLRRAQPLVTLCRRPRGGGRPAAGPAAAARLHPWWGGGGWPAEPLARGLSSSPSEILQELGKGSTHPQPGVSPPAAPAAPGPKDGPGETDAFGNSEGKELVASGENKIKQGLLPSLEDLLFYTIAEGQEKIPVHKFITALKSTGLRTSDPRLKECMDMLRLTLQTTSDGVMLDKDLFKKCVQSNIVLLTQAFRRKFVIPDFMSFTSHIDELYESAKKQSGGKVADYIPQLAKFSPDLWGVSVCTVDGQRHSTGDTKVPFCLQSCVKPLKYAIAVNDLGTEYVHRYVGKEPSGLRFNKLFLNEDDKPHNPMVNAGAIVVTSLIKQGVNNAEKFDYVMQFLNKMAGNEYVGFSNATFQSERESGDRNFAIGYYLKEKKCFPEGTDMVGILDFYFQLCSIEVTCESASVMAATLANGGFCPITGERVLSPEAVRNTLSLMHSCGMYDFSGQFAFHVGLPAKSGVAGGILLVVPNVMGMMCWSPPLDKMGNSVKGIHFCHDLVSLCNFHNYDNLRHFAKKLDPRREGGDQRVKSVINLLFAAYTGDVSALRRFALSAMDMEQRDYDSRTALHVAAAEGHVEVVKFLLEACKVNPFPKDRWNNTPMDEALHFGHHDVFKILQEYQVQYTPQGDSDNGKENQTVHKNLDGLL

These compounds were tested against Glutaminase kidney isoform, mitochondrial (Homo sapiens) (UniProt O94925) (assay: qHTS for Inhibitors of Glutaminase (GLS)). Settings: GLS enzymatic activity, qHTS titration.
With `COc1cccc(C(=O)N(c2cc(C)cc(C)c2)C2CCN(C(=O)OC(C)(C)C)CC2)c1` the Potency was inconclusive: 12.6 µM.
